Our source for the binding values is PMC4899871.

By UniProt entry, the sequences of proteins in these tests, tags left out. Where a name states a change or a piece, a line headed by the entry shows the natural chain unless it says otherwise. Chains listed by the source or under a name are the forms on record and can include a tag or linker.
UniProt Q676U5: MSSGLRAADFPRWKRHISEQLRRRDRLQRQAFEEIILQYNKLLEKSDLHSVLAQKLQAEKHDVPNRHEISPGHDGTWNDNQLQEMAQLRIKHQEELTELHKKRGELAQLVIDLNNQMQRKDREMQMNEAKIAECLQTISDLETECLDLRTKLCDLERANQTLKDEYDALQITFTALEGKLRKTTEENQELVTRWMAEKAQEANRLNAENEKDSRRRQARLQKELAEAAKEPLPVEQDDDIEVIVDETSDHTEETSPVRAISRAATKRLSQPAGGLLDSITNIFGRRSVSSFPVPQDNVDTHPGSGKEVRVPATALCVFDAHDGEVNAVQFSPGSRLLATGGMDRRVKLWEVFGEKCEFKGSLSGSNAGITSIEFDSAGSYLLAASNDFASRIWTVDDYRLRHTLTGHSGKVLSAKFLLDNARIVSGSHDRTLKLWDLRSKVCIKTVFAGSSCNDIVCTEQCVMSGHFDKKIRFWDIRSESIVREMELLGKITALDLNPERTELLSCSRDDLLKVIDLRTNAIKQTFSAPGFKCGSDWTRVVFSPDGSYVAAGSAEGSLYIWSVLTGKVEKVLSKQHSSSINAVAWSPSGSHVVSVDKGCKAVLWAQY
GST-ATG16L1-A300 (Q676U5, form named): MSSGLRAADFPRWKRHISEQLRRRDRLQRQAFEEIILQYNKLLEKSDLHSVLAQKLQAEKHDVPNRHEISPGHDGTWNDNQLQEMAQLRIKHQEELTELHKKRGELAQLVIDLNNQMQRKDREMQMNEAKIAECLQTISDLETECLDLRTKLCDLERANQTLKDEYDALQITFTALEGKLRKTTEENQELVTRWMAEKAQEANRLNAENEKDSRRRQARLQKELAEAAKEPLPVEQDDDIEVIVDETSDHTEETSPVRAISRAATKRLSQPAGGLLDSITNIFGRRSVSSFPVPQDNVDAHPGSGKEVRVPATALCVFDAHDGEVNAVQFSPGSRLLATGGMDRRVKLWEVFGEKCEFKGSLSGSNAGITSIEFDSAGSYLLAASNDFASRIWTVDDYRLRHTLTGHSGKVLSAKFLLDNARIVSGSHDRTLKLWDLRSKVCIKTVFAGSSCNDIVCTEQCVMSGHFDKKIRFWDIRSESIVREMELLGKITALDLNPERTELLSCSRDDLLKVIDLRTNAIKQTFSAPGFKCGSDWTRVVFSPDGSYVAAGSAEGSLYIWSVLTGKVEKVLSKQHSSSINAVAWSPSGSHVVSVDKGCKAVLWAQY

One experiment deals with GST-ATG16L1-A300 (human) (UniProt Q676U5). In words: co-IP; HEK-293T cells transfected with both partners and lysed 36 h after transfection (1% Igepal CA-630, 50 mM Tris HCl pH 7.5, 150 mM NaCl, 5 mM EDTA); lysate diluted to 0.2% detergent; the GST fusion precipitated on glutathione-agarose (4 °C, 1-3 h); immunoblot. On the technique in general: Immunoblotting shows a protein as a band on a membrane.

The target of experiment [1] is GST-ATG16L1 (T300 form) (human) (UniProt Q676U5). The description is as above.

No constants are given. Whether binding was seen depends on the method and setting. Binding seen in cells or lysates may run through a third protein. Some entries that bind do so weakly or less than the wild type. Where a sequence is shown, tags or fusion partners need not be part of it.

B1: TMEM59 (found in GST-ATG16L1 precipitates) (protein, UniProt Q9BXS4 36-323)
chain: EAFDSVLGDTASCHRACQLTYPLHTYPKEEELYACQRGCRLFSICQFVDDGIDLNRTKLECESACTEAYSQSDEQYACHLGCQNQLPFAELRQEQLMSLMPKMHLLFPLTLVRSFWSDMMDSAQSFITSSWTFYLQADDGKIVIFQSKPEIQYAPHLEQEPTNLRESSLSKMSYLQMRNSQAHRNFLEDGESDGFLRCLSLNSGWILTTTLVLSVMVLLWICCATVATAVEQYVPSEKLSIYGDLEFMNEQKLNRYPASSLVVVRSKTEDHEEAGPLPTKVNLAHSEI
On to B1, for which the binding result (in the experiment with GST-ATG16L1-A300 (human); in experiment [1]) was “binds” in each case.
